Values from PubChem BioAssay AID602196 (INSERM, 2012).

Aim: 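Genes whose knock-down alters cisplatin killing of lung cancer cells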
System: human A549 lung cancer cells
Knock-down reagent: siRNA pair against human genes
Duration: 48 h transfection before cisplatin; time from cisplatin to read-out not stated
Conditions: cisplatin at a dose killing half of control-siRNA cells; exact dose and duration not given
Measurement: 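Cisplatin cell death as a shift from the 50% death seen with control siRNA; siRNAs toxic or growth-blocking alone scored 0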
Direction: two-siRNA summed score (-2 to +2): higher = both siRNAs protect from cisplatin killing; -2 means both sensitise; mean protection from cisplatin (shift in death) and protection from cisplatin (shift in death), siRNA C and protection from cisplatin (shift in death), siRNA D: higher = protection from cisplatin killing
Active means: 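Each siRNA scores 0 if harmful alone by LDH or WST-1, otherwise +1 if it reduces and -1 if it increases cisplatin killing; a gene is active when both siRNAs agree (sum +2 or -2)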
Calls: active = both siRNAs shift cisplatin killing the same way; inactive = no consistent shift, or siRNA harmful alone
This is one part, drawn at random, of about 23,000 reagents. In the full data, 455 (2%) got an active call. 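Active includes both protection and sensitisation; some change values fall well beyond the stated -50 to +50 range.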 Entries without a mark were called inactive. The record does not give: the amount of reagent.

no.	Gene	two-siRNA summed score (-2 to +2)	mean protection from cisplatin (shift in death) (%)	protection from cisplatin (shift in death), siRNA C (%)	protection from cisplatin (shift in death), siRNA D (%)
1	FAM9A (family with sequence similarity 9 member A)	0	6.3	-9	21.7
2	bA395L14.13 (retired record)	0	7.4	8.6	6.2
3	LOC442483	0	6.9	6.5	7.3
4	DRD4 (dopamine receptor D4)	-1	1.6	-15.3	18.5
5	NUDT13 (nudix hydrolase 13)	0	2.4	4.4	0.3
6	AMIGO3 (adhesion molecule with Ig like domain 3)	1	22.9	24.9	20.9
7	PLAC8L1 (PLAC8 like 1)	0	3.1	2	4.3
8	CCDC198 (coiled-coil domain containing 198)	-1	-7.2	10.3	-24.7
9	USP16 (ubiquitin specific peptidase 16)	1	16	5.4	26.5
10	FOXD1 (forkhead box D1)	0	-7.7	-14.1	-1.2
11	TP53AIP1 (tumor protein p53 regulated apoptosis inducing protein 1)	0	4.6	6.7	2.4
12	ALPP (alkaline phosphatase, placental)	1	12.2	20	4.4
13	CDK11A (cyclin dependent kinase 11A)	-1	-14.4	-14.3	-14.6
14	LOC148766	0	3.8	4	3.7
15	SLC26A7	0	4.1	3.6	4.6
16	LOC440733	0	15.1	23.7	6.5
17	GYPE (glycophorin E (MNS blood group))	0	6.9	6.7	7.2
18	TRAP1 (TNF receptor associated protein 1)	1	11.3	6.4	16.3
19	PHIP (PHIP subunit of CUL4-Ring ligase complex)	0	14.5	24.1	4.9
20	HOXB6 (homeobox B6)	0	10.5	5.8	15.2
21	LOC143244	0	5	7.9	2.1
22	LINC00898 (long independently transcribed non-coding RNA 898)	1	27.5	15.2	39.8
23	ADAMTS7 (ADAM metallopeptidase with thrombospondin type 1 motif 7)	0	6.1	10.3	1.8
